Among the data in the supplement of paper PMC5949888 are growth estimate values, retold here.

Most values lie at the floor of the assay. Slopes are relative: functional sequences can read slightly below zero.

This data set relates to Saccharomyces cerevisiae PS128 hsf1 delta, HSF1(1-493) fusion. Put plainly: growth estimate (transactivation domain function in HSF1 fusion, heat-shock survival) (a.u. (slope of normalised read count over time)); higher = stronger growth at 37°C, i.e. more transactivation activity. Conditions: library: random library.
For the substance KFASVRRDNSEIYCPPASNY, the growth estimate is < -0.25.
To NGDW belongs -0.158; to IGILW, < -0.25; to ELAGRVFRLCAKLSGRYFDA, < -0.25.
To SLIYK belongs -0.248; to EKVNALLLHMESSA, < -0.25.
To ILRGKRCGWYKGDGAHSTPR belongs < -0.25; to GAIP, < -0.25.
As for IIPNA, the growth estimate is < -0.25.
To HRCISLRGFGGLSGDWTFGL belongs < -0.25; to GSVFST, < -0.25; to FRRRPYETEGGKAGNGTQGL, < -0.25.
To CES belongs < -0.25.
On to GNLGIV, for which the growth estimate is < -0.25.
To ANLHARVNATVRRGRTGHHL belongs < -0.25; to MRKHTFLGGDPLLVS, < -0.25.
To TVNLRGRRAWFASGRR belongs < -0.25; to RDKVCNFSIVRIVPSEYGKA, -0.246.
As for WGSLCLDQGSGGPVAEANPR, the growth estimate was < -0.25.
To RRAILHRYGVR belongs < -0.25; to HQG, < -0.25.
To GCATVGLPYQAGKRGVRTVT belongs -0.243; to RIVRKARSERTREEVRLLYC, < -0.25.
To CSHFWSETTQLV belongs < -0.25; to SIKGLPANILWLLGWKTLGV, < -0.25.
On to LLPGGT, for which the growth estimate was < -0.25.
To SKYQHRTVGTAYHCASRRLR belongs < -0.25; to GPAFGVCVSSAASP, < -0.25; to SWKKL, < -0.25.
To GSARFTRPSCPE belongs < -0.25.
To GFEAGINCD belongs < -0.25.
With LVLEFRNVSSQMRWVCFGRD, the growth estimate was < -0.25.
To LPWGIDYQ belongs < -0.25; to TRPHLTKGRTLLRQLGLEGI, < -0.25.
In the case of IQRKPDVHREVRIPAVTSRA, the growth estimate is < -0.25.
Turning to VIVSGD, the growth estimate was -0.231.
To TIEFVASRGSRTKYEVMRPA belongs < -0.25; to WSQQDLDGRKRPEADTWQIR, < -0.25.
To ISSLQAPRFIIGAPDSGFAY belongs < -0.25; to WFECRIIR, < -0.25.
To SWQVSSICKLGNCLGGCIQT belongs < -0.25.
In the case of SWIRFRAVYSLRVLLEARTE, the growth estimate was < -0.25.
To QHRGRSVRIRIGYGRC belongs < -0.25; to GQPKTKVLC, < -0.25.
In the case of WTTIGTQMGGLTLGSRGNTL, the growth estimate was < -0.25.
Regarding FDLNIAMYSRAADRLRGIRQ, the growth estimate is < -0.25.
To IVTLTRLRG belongs < -0.25; to GVARTISLICPVRCSRRGRI, < -0.25; to KFIANPGTTGASHFGAVSVR, < -0.25.
Regarding SDQ, the growth estimate is < -0.25.
For AEAPILNLATVGV, the growth estimate was < -0.25.
To IPRSVSY belongs < -0.25; to KASGPG, < -0.25; to VRRGRCVLSS, < -0.25.
To ASGVVVHRTNLESLHVQATL belongs < -0.25; to SSAKRAGQDLASPGSRRA, < -0.25; to FMTVGVAAAFGERRRLDSEG, < -0.25.
Turning to DMPLGQDFNAGVYTGV, the growth estimate was < -0.25.
To IAGLNVKQIL belongs < -0.25.
To SLPILEHVWSLCILGVPLHQ belongs < -0.25; to TAAKSRQGEIRKCDRLAILT, < -0.25; to SEPPMRRSIDSMQRLAKSLA, -0.243.
Consider VVDSCSPSHDVRLNCYTLSG, for which the growth estimate is < -0.25.
For RRRGHYIEYACRGKRRIATA, the growth estimate was < -0.25.
